# Measurements reported in the supplement of paper PMC11732987, “Enantioselective OTUD7B fragment discovery through chemoproteomics screening and high-throughput optimisation” (Communications Chemistry, 2025).
# The list shows a part of the results. The data scatter; read single values as rough.
# Target: T1, AHI1 C194 (UniProt Q8N157)
# T1 sequence (whole entry): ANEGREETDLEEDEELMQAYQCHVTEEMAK
# Assay: log2 mean competition ratio of IA-DTB cysteine labelling (DMSO/compound) (log2 ratio); higher = stronger cysteine engagement by compound
# Details: 50 µM; treatment time: 4 h; cell line lysate: HEK293T
# Procedure: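 IA-DTB competitive cysteine chemoproteomics in HEK293T RIPA lysate. Lysates were treated with compound 29 or 30 at 50 or 200 µM for 4 h, then IA-DTB (500 µM, 1 h), trypsin-digested, NeutrAvidin-enriched and analysed by diaPASEF. Competition ratio = intensity DMSO / intensity compound (n=4 treated, n=64 DMSO); binding: mean log2 CR ≥ 1 and p ≤ 0.05 plus QC filters. Target is the cysteine site.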
row,SMILES,log2 mean competition ratio
1,O=C(CCl)N[C@H]1CCCc2ccccc21,0.0866
2,O=C(CCl)N[C@@H]1CCCc2ccccc21,-0.258

# Same assay, conditions: 200 µM; treatment time: 4 h; cell line lysate: HEK293T
row,SMILES,log2 mean competition ratio
1,O=C(CCl)N[C@H]1CCCc2ccccc21,0.0687
2,O=C(CCl)N[C@@H]1CCCc2ccccc21,-0.329
